# Results taken from the supplement of paper PMC8728848.
# The list shows a part of the results.
# B1: PX14343G-pdi-535-24-535 (Parabacteroides distasonis) (protein)
# chain: LDTVPKDQLAPSTTWQTEADAKGFIVGCYKDLLDGNTLLYLDCGSDIGYNNFPWEGFRPWGDGSLSSSNPGQILYDYKSIRKANTFLENVDKVTFSSDAVKANYVAQAKAIRAYKYFLMNWWYGGVPIISSYSSADEAKVERNTEQEVRDYIAKDLDEALAGIAEAPEARGYIAKGAVLAIKMREALYYGDWQKAKDAAKAIIDLKQYELDPDYTNLFKVSGVDSKEIILADQNIETLDGLGTIGQMYNNVDQGWSSIVPTQNLVDMYEMSDGLTKEESKTYDAKHPFANRDPRMAMTILYPGRDWRGDVLNTLDEKLQDGTVNKNFPTYTDNASKSALTWAKYLDPMDQYGDVWSSGACPIVFRYAEVLLTYAEAANELSGPSDEIYGYLNQIRQRVGMGEVDKAKYGTKDKLRELIRRERTVELAGEGLRRADIVRWQEDGKMLAEKVMNGDLLRVTGTINYGESEPTKRAEITGTAVIETRQFSSRNRYLPIPQTSMDKNPNLKQNPGY
# Key:
# Assay in all cases: glycan array binding signal (z-score within array); higher = stronger binding
# Settings in all cases: glycan notation: IUPAC condensed, linker removed
# [1] = biological target: Neu5Ac(a2-6)Gal(b1-4)GlcNAc(b1-2)Man(a1-3)[Man(a1-6)]Man(b1-4)GlcNAc(b1-4)GlcNAc
# In short: (§1)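 Glycan array binding is given as a within-array Z-score, which can be read as non-binding when negative. The arrays, 3228 of them, came from the Consortium for Functional Glycomics database and were retained only where the protein sequence was available. Z-scores were averaged across arrays of the same protein sequence at different concentrations or buffers and across linkers.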
# [2] = biological target: Neu5Ac(a2-6)Gal(b1-4)GlcNAc(b1-2)Man(a1-3)[Neu5Ac(a2-3)Gal(b1-4)GlcNAc(b1-2)Man(a1-6)]Man(b1-4)GlcNAc(b1-4)GlcNAc
# In short: as §1
# [3] = biological target: Neu5Ac(a2-6)Gal(b1-4)GlcNAc(b1-2)Man(a1-3)[Neu5Ac(a2-6)Gal(b1-4)GlcNAc(b1-2)Man(a1-6)]Man(b1-4)GlcNAc(b1-4)GlcNAc
# In short: as §1
# [4] = biological target: Neu5Ac(a2-6)Gal(b1-4)GlcNAc(b1-2)Man(a1-3)[Neu5Ac(a2-6)Gal(b1-4)GlcNAc(b1-2)Man(a1-6)]Man(b1-4)GlcNAc(b1-4)[Fuc(a1-6)]GlcNAc
# In short: as §1
# [5] = biological target: Neu5Ac(a2-6)Gal(b1-4)GlcNAc(b1-2)Man(a1-6)Man(b1-4)GlcNAc(b1-4)GlcNAc
# In short: as §1
# [6] = biological target: Neu5Ac(a2-6)Gal(b1-4)GlcNAc(b1-2)Man(a1-6)[Gal(b1-4)GlcNAc(b1-2)Man(a1-3)]Man(b1-4)GlcNAc(b1-4)GlcNAc
# In short: as §1
# [7] = biological target: Neu5Ac(a2-6)Gal(b1-4)GlcNAc(b1-2)Man(a1-6)[GlcNAc(b1-2)Man(a1-3)]Man(b1-4)GlcNAc(b1-4)GlcNAc
# In short: as §1
# [8] = biological target: Neu5Ac(a2-6)Gal(b1-4)GlcNAc(b1-2)Man(a1-6)[Man(a1-3)]Man(b1-4)GlcNAc(b1-4)GlcNAc
# In short: as §1
# [9] = biological target: Neu5Ac(a2-6)Gal(b1-4)GlcNAc(b1-2)[Neu5Ac(a2-6)Gal(b1-4)GlcNAc(b1-4)]Man(a1-3)[GlcNAc(b1-4)][Neu5Ac(a2-6)Gal(b1-4)GlcNAc(b1-2)[Neu5Ac(a2-6)Gal(b1-4)GlcNAc(b1-6)]Man(a1-6)]Man(b1-4)GlcNAc(b1-4)GlcNAc
# In short: as §1
# [10] = biological target: Neu5Ac(a2-6)Gal(b1-4)GlcNAc(b1-2)[Neu5Ac(a2-6)Gal(b1-4)GlcNAc(b1-4)]Man(a1-3)[GlcNAc(b1-4)][Neu5Ac(a2-6)Gal(b1-4)GlcNAc(b1-4)Man(a1-6)]Man(b1-4)GlcNAc(b1-4)GlcNAc
# In short: as §1
# [11] = biological target: Neu5Ac(a2-6)Gal(b1-4)GlcNAc(b1-2)[Neu5Ac(a2-6)Gal(b1-4)GlcNAc(b1-6)]Man(a1-6)[Neu5Ac(a2-6)Gal(b1-4)GlcNAc(b1-2)Man(a1-3)][GlcNAc(b1-4)]Man(b1-4)GlcNAc(b1-4)GlcNAc
# In short: as §1
# [12] = biological target: Neu5Ac(a2-6)Gal(b1-4)GlcNAc(b1-3)Gal(b1-3)GlcNAc
# In short: as §1
# [13] = biological target: Neu5Ac(a2-6)Gal(b1-4)GlcNAc(b1-3)Gal(b1-4)GlcNAc
# In short: as §1
# [14] = biological target: Neu5Ac(a2-6)Gal(b1-4)GlcNAc(b1-3)Gal(b1-4)GlcNAc(b1-2)Man(a1-3)[Neu5Ac(a2-6)Gal(b1-4)GlcNAc(b1-3)Gal(b1-4)GlcNAc(b1-2)Man(a1-6)]GalNAc
# In short: as §1
# [15] = biological target: Neu5Ac(a2-6)Gal(b1-4)GlcNAc(b1-3)Gal(b1-4)GlcNAc(b1-3)Gal(b1-4)GlcNAc
# In short: as §1
# [16] = biological target: Neu5Ac(a2-6)Gal(b1-4)GlcNAc(b1-3)Gal(b1-4)GlcNAc(b1-3)Gal(b1-4)GlcNAc(b1-2)Man(a1-3)[Neu5Ac(a2-6)Gal(b1-4)GlcNAc(b1-3)Gal(b1-4)GlcNAc(b1-3)Gal(b1-4)GlcNAc(b1-2)Man(a1-6)]GalNAc
# In short: as §1
# [17] = biological target: Neu5Ac(a2-6)Gal(b1-4)GlcNAc(b1-3)Gal(b1-4)GlcNAc(b1-3)GalNAc
# In short: as §1
# [18] = biological target: Neu5Ac(a2-6)Gal(b1-4)GlcNAc(b1-3)Gal(b1-4)GlcNAc(b1-3)[Neu5Ac(a2-6)Gal(b1-4)GlcNAc(b1-3)Gal(b1-4)GlcNAc(b1-6)]GalNAc
# In short: as §1
# [19] = biological target: Neu5Ac(a2-6)Gal(b1-4)GlcNAc(b1-3)Gal(b1-4)GlcNAc(b1-6)[Gal(b1-3)]GalNAc
# In short: as §1
# [20] = biological target: Neu5Ac(a2-6)Gal(b1-4)GlcNAc(b1-3)Gal(b1-4)[Fuc(a1-3)]GlcNAc(b1-3)Gal(b1-4)[Fuc(a1-3)]GlcNAc
# In short: as §1
# [21] = biological target: Neu5Ac(a2-6)Gal(b1-4)GlcNAc(b1-3)GalNAc
# In short: as §1
# [22] = biological target: Neu5Ac(a2-6)Gal(b1-4)GlcNAc(b1-3)[Neu5Ac(a2-6)Gal(b1-4)GlcNAc(b1-6)]GalNAc
# In short: as §1
# [23] = biological target: Neu5Ac(a2-6)Gal(b1-4)GlcNAc(b1-6)GalNAc
# In short: as §1
# [24] = biological target: Neu5Ac(a2-6)Gal(b1-4)GlcNAc(b1-6)[Gal(b1-3)GlcNAc(b1-3)]Gal(b1-4)Glc
# In short: as §1
# [25] = biological target: Neu5Ac(a2-6)Gal(b1-4)GlcNAc(b1-6)[Gal(b1-3)]GalNAc
# In short: as §1
# [26] = biological target: Neu5Ac(a2-6)Gal(b1-4)GlcNAc6S
# In short: as §1
# Neu5Ac(a2-6)GalNAc = biological target: Neu5Ac(a2-6)GalNAc
# In short: as §1
# [27] = biological target: Neu5Ac(a2-6)GalNAc(b1-4)GlcNAc
# In short: as §1
# [28] = biological target: Neu5Ac(a2-6)GalNAc(b1-4)GlcNAc6S
# In short: as §1
# [29] = biological target: Neu5Ac(a2-6)GlcNAc(b1-4)GlcNAc
# In short: as §1
# [30] = biological target: Neu5Ac(a2-6)GlcNAc(b1-4)GlcNAc(b1-4)GlcNAc
# In short: as §1
binder,measurement,setting,value
B1,glycan array binding signal (z-score),[1],-0.409
same,glycan array binding signal (z-score),[2],0.242
same,glycan array binding signal (z-score),[3],-0.872
same,glycan array binding signal (z-score),[4],1.36
same,glycan array binding signal (z-score),[5],0.034
same,glycan array binding signal (z-score),[6],-0.943
same,glycan array binding signal (z-score),[7],0.112
same,glycan array binding signal (z-score),[8],0.156
same,glycan array binding signal (z-score),[9],0.879
same,glycan array binding signal (z-score),[10],0.881
same,glycan array binding signal (z-score),[11],-0.043
same,glycan array binding signal (z-score),[12],-0.172
same,glycan array binding signal (z-score),[13],1.44
same,glycan array binding signal (z-score),[14],-0.316
same,glycan array binding signal (z-score),[15],0.421
same,glycan array binding signal (z-score),[16],1.49
same,glycan array binding signal (z-score),[17],0.038
same,glycan array binding signal (z-score),[18],-0.546
same,glycan array binding signal (z-score),[19],-0.96
same,glycan array binding signal (z-score),[20],-0.479
same,glycan array binding signal (z-score),[21],-0.432
same,glycan array binding signal (z-score),[22],-0.163
same,glycan array binding signal (z-score),[23],-0.863
same,glycan array binding signal (z-score),[24],-0.797
same,glycan array binding signal (z-score),[25],-0.369
same,glycan array binding signal (z-score),[26],-0.215
same,glycan array binding signal (z-score),Neu5Ac(a2-6)GalNAc,-0.874
same,glycan array binding signal (z-score),[27],-0.103
same,glycan array binding signal (z-score),[28],-0.091
same,glycan array binding signal (z-score),[29],-0.538
same,glycan array binding signal (z-score),[30],-0.581

# Quoted at random: two records from the list
binder,measurement,setting,value
B1,glycan array binding signal (z-score),[20],-0.479
same,glycan array binding signal (z-score),[6],-0.943
